Results on one molecule are retold here after paper PMC10783506.

The target in this assay is human LGP2 (laboratory of genetics and physiology 2), E. coli expressed (human) (UniProt Q96C10). Put plainly: SEC; gel filtration on Superose 6 to assess the oligomeric state, elution compared with standard proteins; no RNA; both purified.

Results are given in words; binding and its absence hold for the method and conditions named.

B1: human LGP2 (laboratory of genetics and physiology 2), E. coli expressed (protein, UniProt Q96C10 1-678)
chain: MELRSYQWEVIMPALEGKNIIIWLPTGAGKTRAAAYVAKRHLETVDGAKVVVLVNRVHLVTQHGEEFRRMLDGRWTVTTLSGDMGPRAGFGHLARCHDLLICTAELLQMALTSPEEEEHVELTVFSLIVVDECHHTHKDTVYNVIMSQYLELKLQRAQPLPQVLGLTASPGTGGASKLDGAINHVLQLCANLDTWCIMSPQNCCPQLQEHSQQPCKQYNLCHRRSQDPFGDLLKKLMDQIHDHLEMPELSRKFGTQMYEQQVVKLSEAAALAGLQEQRVYALHLRRYNDALLIHDTVRAVDALAALQDFYHREHVTKTQILCAERRLLALFDDRKNELAHLATHGPENPKLEMLEKILQRQFSSSNSPRGIIFTRTRQSAHSLLLWLQQQQGLQTVDIRAQLLIGAGNSSQSTHMTQRDQQEVIQKFQDGTLNLLVATSVAEEGLDIPHCNVVVRYGLLTNEISMVQARGRARADQSVYAFVATEGSRELKRELINEALETLMEQAVAAVQKMDQAEYQAKIRDLQQAALTKRAAQAAQRENQRQQFPVEHVQLLCINCMVAVGHGSDLRKVEGTHHVNVNPNFSNYYNVSRDPVVINKVFKDWKPGGVISCRNCGEVWGLQMIYKSVKLPVLKVRSMLLETPQGRIQAKKWSRVPFSVPDFDFLQHCAENLSDLSLD
As for B1, the binding entry was “no binding”.
